Measurements from paper PMC12448815.
These are yes or no findings as the source states them, for the method shown. Binding seen in cells or lysates may run through a third protein. Some entries that bind do so weakly or less than the wild type.

By UniProt entry, the sequences of proteins in these tests, tags left out.
UniProt P48432: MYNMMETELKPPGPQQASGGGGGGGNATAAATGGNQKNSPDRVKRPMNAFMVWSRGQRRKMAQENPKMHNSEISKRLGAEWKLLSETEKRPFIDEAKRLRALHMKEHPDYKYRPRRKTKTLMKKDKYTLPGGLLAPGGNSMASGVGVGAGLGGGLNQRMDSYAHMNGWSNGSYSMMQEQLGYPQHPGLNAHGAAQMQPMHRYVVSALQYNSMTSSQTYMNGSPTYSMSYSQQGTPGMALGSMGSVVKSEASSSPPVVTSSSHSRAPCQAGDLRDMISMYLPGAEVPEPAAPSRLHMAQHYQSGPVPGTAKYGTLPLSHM
UniProt P80206: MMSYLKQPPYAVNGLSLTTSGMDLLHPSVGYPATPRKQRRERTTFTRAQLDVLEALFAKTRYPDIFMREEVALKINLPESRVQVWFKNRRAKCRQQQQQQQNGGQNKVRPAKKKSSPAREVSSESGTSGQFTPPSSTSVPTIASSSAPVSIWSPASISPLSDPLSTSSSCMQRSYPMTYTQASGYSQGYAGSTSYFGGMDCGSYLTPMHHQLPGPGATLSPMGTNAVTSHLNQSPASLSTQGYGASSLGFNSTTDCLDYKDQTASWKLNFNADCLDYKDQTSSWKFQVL

Target: SRY-Box Transcription Factor 2 (SOX2) (mouse (endogenous in NOTCH-driven CP tumors)) (UniProt P48432)
Test: co-IP; NOTCH-driven CP tumors; carried out as previously described (ref. 33); which protein was precipitated is not told

binding: binds
Substance: orthodenticle homeobox 2 (OTX2) (from UniProt P80206 1-289)
